Test results as given in the supplement of paper PMC8728848.
The list shows a part of the results.

Key:
Test in all cases: glycan array binding signal (z-score within array); higher = stronger binding
Conditions in all cases: glycan notation: IUPAC condensed, linker removed
[1] = target: Neu5Ac(a2-6)Gal(b1-4)GlcNAc(b1-2)[Neu5Ac(a2-6)Gal(b1-4)GlcNAc(b1-4)]Man(a1-3)[GlcNAc(b1-4)][Neu5Ac(a2-6)Gal(b1-4)GlcNAc(b1-2)[Neu5Ac(a2-6)Gal(b1-4)GlcNAc(b1-6)]Man(a1-6)]Man(b1-4)GlcNAc(b1-4)GlcNAc
Method in brief: (§1)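 The Consortium for Functional Glycomics database supplied 3228 glycan arrays, of which those lacking an available protein sequence were dropped. The binding signal, a within-array Z-score, was averaged across arrays of the same protein sequence and across linkers. Negative scores can be read as non-binding.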

[2] = target: Neu5Ac(a2-6)Gal(b1-4)GlcNAc(b1-2)[Neu5Ac(a2-6)Gal(b1-4)GlcNAc(b1-4)]Man(a1-3)[GlcNAc(b1-4)][Neu5Ac(a2-6)Gal(b1-4)GlcNAc(b1-4)Man(a1-6)]Man(b1-4)GlcNAc(b1-4)GlcNAc
Method in brief: as §1

[3] = target: Neu5Ac(a2-6)Gal(b1-4)GlcNAc(b1-2)[Neu5Ac(a2-6)Gal(b1-4)GlcNAc(b1-6)]Man(a1-6)[Neu5Ac(a2-6)Gal(b1-4)GlcNAc(b1-2)Man(a1-3)][GlcNAc(b1-4)]Man(b1-4)GlcNAc(b1-4)GlcNAc
Method in brief: as §1

[4] = target: Neu5Ac(a2-6)Gal(b1-4)GlcNAc(b1-3)Gal(b1-3)GlcNAc
Method in brief: as §1

[5] = target: Neu5Ac(a2-6)Gal(b1-4)GlcNAc(b1-3)Gal(b1-4)GlcNAc
Method in brief: as §1

[6] = target: Neu5Ac(a2-6)Gal(b1-4)GlcNAc(b1-3)Gal(b1-4)GlcNAc(b1-2)Man(a1-3)[Neu5Ac(a2-6)Gal(b1-4)GlcNAc(b1-3)Gal(b1-4)GlcNAc(b1-2)Man(a1-6)]GalNAc
Method in brief: as §1

[7] = target: Neu5Ac(a2-6)Gal(b1-4)GlcNAc(b1-3)Gal(b1-4)GlcNAc(b1-3)Gal(b1-4)GlcNAc
Method in brief: as §1

[8] = target: Neu5Ac(a2-6)Gal(b1-4)GlcNAc(b1-3)Gal(b1-4)GlcNAc(b1-3)Gal(b1-4)GlcNAc(b1-2)Man(a1-3)[Neu5Ac(a2-6)Gal(b1-4)GlcNAc(b1-3)Gal(b1-4)GlcNAc(b1-3)Gal(b1-4)GlcNAc(b1-2)Man(a1-6)]GalNAc
Method in brief: as §1

[9] = target: Neu5Ac(a2-6)Gal(b1-4)GlcNAc(b1-3)Gal(b1-4)GlcNAc(b1-3)GalNAc
Method in brief: as §1

[10] = target: Neu5Ac(a2-6)Gal(b1-4)GlcNAc(b1-3)Gal(b1-4)GlcNAc(b1-3)[Neu5Ac(a2-6)Gal(b1-4)GlcNAc(b1-3)Gal(b1-4)GlcNAc(b1-6)]GalNAc
Method in brief: as §1

[11] = target: Neu5Ac(a2-6)Gal(b1-4)GlcNAc(b1-3)Gal(b1-4)GlcNAc(b1-6)[Gal(b1-3)]GalNAc
Method in brief: as §1

[12] = target: Neu5Ac(a2-6)Gal(b1-4)GlcNAc(b1-3)Gal(b1-4)[Fuc(a1-3)]GlcNAc(b1-3)Gal(b1-4)[Fuc(a1-3)]GlcNAc
Method in brief: as §1

[13] = target: Neu5Ac(a2-6)Gal(b1-4)GlcNAc(b1-3)GalNAc
Method in brief: as §1

[14] = target: Neu5Ac(a2-6)Gal(b1-4)GlcNAc(b1-3)[Neu5Ac(a2-6)Gal(b1-4)GlcNAc(b1-6)]GalNAc
Method in brief: as §1

[15] = target: Neu5Ac(a2-6)Gal(b1-4)GlcNAc(b1-6)GalNAc
Method in brief: as §1

[16] = target: Neu5Ac(a2-6)Gal(b1-4)GlcNAc(b1-6)[Gal(b1-3)GlcNAc(b1-3)]Gal(b1-4)Glc
Method in brief: as §1

[17] = target: Neu5Ac(a2-6)Gal(b1-4)GlcNAc(b1-6)[Gal(b1-3)]GalNAc
Method in brief: as §1

[18] = target: Neu5Ac(a2-6)Gal(b1-4)GlcNAc6S
Method in brief: as §1

[19] = target: Neu5Ac(a2-6)GalNAc
Method in brief: as §1

[20] = target: Neu5Ac(a2-6)GalNAc(b1-4)GlcNAc
Method in brief: as §1

[21] = target: Neu5Ac(a2-6)GalNAc(b1-4)GlcNAc6S
Method in brief: as §1

[22] = target: Neu5Ac(a2-6)GlcNAc(b1-4)GlcNAc
Method in brief: as §1

[23] = target: Neu5Ac(a2-6)GlcNAc(b1-4)GlcNAc(b1-4)GlcNAc
Method in brief: as §1

[24] = target: Neu5Ac(a2-8)Neu5Ac
Method in brief: as §1

[25] = target: Neu5Ac(a2-8)Neu5Ac(a2-3)Gal(b1-3)GalNAc(b1-4)[Neu5Ac(a2-3)]Gal(b1-4)Glc
Method in brief: as §1

[26] = target: Neu5Ac(a2-8)Neu5Ac(a2-3)Gal(b1-3)GalNAc(b1-4)[Neu5Ac(a2-8)Neu5Ac(a2-3)]Gal(b1-4)Glc
Method in brief: as §1

[27] = target: Neu5Ac(a2-8)Neu5Ac(a2-3)Gal(b1-4)Glc
Method in brief: as §1

[28] = target: Neu5Ac(a2-8)Neu5Ac(a2-3)Gal(b1-4)GlcNAc
Method in brief: as §1

[29] = target: Neu5Ac(a2-8)Neu5Ac(a2-3)[Gal(b1-3)GalNAc(b1-4)]Gal(b1-4)Glc
Method in brief: as §1

[30] = target: Neu5Ac(a2-8)Neu5Ac(a2-3)[GalNAc(b1-4)]Gal(b1-4)Glc
Method in brief: as §1

[31] = target: Neu5Ac(a2-8)Neu5Ac(a2-8)Neu5Ac
Method in brief: as §1

[32] = target: Neu5Ac(a2-8)Neu5Ac(a2-8)Neu5Ac(a2-3)Gal(b1-4)Glc
Method in brief: as §1

[33] = target: Neu5Ac(a2-8)Neu5Ac(a2-8)Neu5Ac(a2-3)[Gal(b1-3)GalNAc(b1-4)]Gal(b1-4)Glc
Method in brief: as §1

[34] = target: Neu5Ac(a2-8)Neu5Ac(a2-8)Neu5Ac(a2-3)[GalNAc(b1-4)]Gal(b1-4)Glc
Method in brief: as §1

[35] = target: Neu5Ac(a2-8)Neu5Ac(a2-8)Neu5Ac(a2-8)Neu5Ac(a2-3)[GalNAc(b1-4)]Gal(b1-4)Glc
Method in brief: as §1

[36] = target: Neu5Ac(a2-8)Neu5Gc(a2-3)Gal(b1-4)GlcNAc
Method in brief: as §1

[37] = target: Neu5Ac(b2-6)Gal(b1-4)GlcNAc
Method in brief: as §1

[38] = target: Neu5Ac(b2-6)GalNAc
Method in brief: as §1

[39] = target: Neu5Ac9Ac(a2-3)Gal(b1-3)GlcNAc
Method in brief: as §1

[40] = target: Neu5Ac9Ac(a2-3)Gal(b1-4)GlcNAc
Method in brief: as §1

[41] = target: Neu5Ac9Ac(a2-6)Gal(b1-4)GlcNAc
Method in brief: as §1

[42] = target: Neu5Gc(a2-3)Gal(b1-3)GlcNAc
Method in brief: as §1

[43] = target: Neu5Gc(a2-3)Gal(b1-3)[Fuc(a1-4)]GlcNAc
Method in brief: as §1

[44] = target: Neu5Gc(a2-3)Gal(b1-4)Glc
Method in brief: as §1

[45] = target: Neu5Gc(a2-3)Gal(b1-4)GlcNAc
Method in brief: as §1

[46] = target: Neu5Gc(a2-3)Gal(b1-4)GlcNAc(b1-3)Gal(b1-4)GlcNAc(b1-2)Man(a1-3)[Neu5Gc(a2-3)Gal(b1-4)GlcNAc(b1-3)Gal(b1-4)GlcNAc(b1-2)Man(a1-6)]Man(b1-4)GlcNAc(b1-4)GlcNAc
Method in brief: as §1

[47] = target: Neu5Gc(a2-3)Gal(b1-4)[Fuc(a1-3)]GlcNAc
Method in brief: as §1

[48] = target: Neu5Gc(a2-6)Gal(b1-4)GlcNAc
Method in brief: as §1

[49] = target: Neu5Gc(a2-6)GalNAc
Method in brief: as §1

[50] = target: Neu5Gc(a2-8)Neu5Ac(a2-3)Gal(b1-4)GlcNAc
Method in brief: as §1

[51] = target: Neu5Gc(a2-8)Neu5Gc(a2-3)Gal(b1-4)GlcNAc
Method in brief: as §1

[52] = target: Neu5Gc(a2-8)Neu5Gc(a2-3)Gal(b1-4)GlcNAc(b1-3)Gal(b1-4)GlcNAc
Method in brief: as §1

[53] = target: Neu5Gc(a2-8)Neu5Gc(a2-6)Gal(b1-4)GlcNAc
Method in brief: as §1

[54] = target: Neu5Gc(b2-6)Gal(b1-4)GlcNAc
Method in brief: as §1

Binder: KILRGVCKKIMRTFLRRISKDILTGKK [NK2 (Sus scrofa)]
- glycan array binding signal (z-score) [1]: 1.34
- glycan array binding signal (z-score) [2]: 1.24
- glycan array binding signal (z-score) [3]: 0.345
- glycan array binding signal (z-score) [4]: -0.155
- glycan array binding signal (z-score) [5]: -0.01
- glycan array binding signal (z-score) [6]: 0.632
- glycan array binding signal (z-score) [7]: 0.297
- glycan array binding signal (z-score) [8]: 1.64
- glycan array binding signal (z-score) [9]: 0.458
- glycan array binding signal (z-score) [10]: 0.794
- glycan array binding signal (z-score) [11]: 0.793
- glycan array binding signal (z-score) [12]: -0.083
- glycan array binding signal (z-score) [13]: 0.812
- glycan array binding signal (z-score) [14]: 1.76
- glycan array binding signal (z-score) [15]: 1.37
- glycan array binding signal (z-score) [16]: -0.41
- glycan array binding signal (z-score) [17]: -1.1
- glycan array binding signal (z-score) [18]: 1.69
- glycan array binding signal (z-score) [19]: -0.814
- glycan array binding signal (z-score) [20]: -0.829
- glycan array binding signal (z-score) [21]: 0.339
- glycan array binding signal (z-score) [22]: -0.816
- glycan array binding signal (z-score) [23]: -0.425
- glycan array binding signal (z-score) [24]: 0.69
- glycan array binding signal (z-score) [25]: 0.902
- glycan array binding signal (z-score) [26]: 0.039
- glycan array binding signal (z-score) [27]: -0.889
- glycan array binding signal (z-score) [28]: -0.699
- glycan array binding signal (z-score) [29]: -0.924
- glycan array binding signal (z-score) [30]: -0.196
- glycan array binding signal (z-score) [31]: 0.091
- glycan array binding signal (z-score) [32]: 0.702
- glycan array binding signal (z-score) [33]: 0.446
- glycan array binding signal (z-score) [34]: -0.07
- glycan array binding signal (z-score) [35]: 0.244
- glycan array binding signal (z-score) [36]: -1.23
- glycan array binding signal (z-score) [37]: -1.01
- glycan array binding signal (z-score) [38]: -0.062
- glycan array binding signal (z-score) [39]: -0.385
- glycan array binding signal (z-score) [40]: 0.261
- glycan array binding signal (z-score) [41]: 0.15
- glycan array binding signal (z-score) [42]: -0.108
- glycan array binding signal (z-score) [43]: -0.471
- glycan array binding signal (z-score) [44]: -0.495
- glycan array binding signal (z-score) [45]: 0.176
- glycan array binding signal (z-score) [46]: -0.865
- glycan array binding signal (z-score) [47]: -0.776
- glycan array binding signal (z-score) [48]: -0.373
- glycan array binding signal (z-score) [49]: 0.251
- glycan array binding signal (z-score) [50]: -1.68
- glycan array binding signal (z-score) [51]: -1.76
- glycan array binding signal (z-score) [52]: -0.369
- glycan array binding signal (z-score) [53]: -1.65
- glycan array binding signal (z-score) [54]: 0.622
